Assay results from the supplement of paper PMC10849652.
The list shows a part of the results.

Sequences of proteins named here, by UniProt entry; tags and fusion partners are left off. A change or cut given only in a name is not applied to a line headed by its entry.
UniProt Q9UPN6: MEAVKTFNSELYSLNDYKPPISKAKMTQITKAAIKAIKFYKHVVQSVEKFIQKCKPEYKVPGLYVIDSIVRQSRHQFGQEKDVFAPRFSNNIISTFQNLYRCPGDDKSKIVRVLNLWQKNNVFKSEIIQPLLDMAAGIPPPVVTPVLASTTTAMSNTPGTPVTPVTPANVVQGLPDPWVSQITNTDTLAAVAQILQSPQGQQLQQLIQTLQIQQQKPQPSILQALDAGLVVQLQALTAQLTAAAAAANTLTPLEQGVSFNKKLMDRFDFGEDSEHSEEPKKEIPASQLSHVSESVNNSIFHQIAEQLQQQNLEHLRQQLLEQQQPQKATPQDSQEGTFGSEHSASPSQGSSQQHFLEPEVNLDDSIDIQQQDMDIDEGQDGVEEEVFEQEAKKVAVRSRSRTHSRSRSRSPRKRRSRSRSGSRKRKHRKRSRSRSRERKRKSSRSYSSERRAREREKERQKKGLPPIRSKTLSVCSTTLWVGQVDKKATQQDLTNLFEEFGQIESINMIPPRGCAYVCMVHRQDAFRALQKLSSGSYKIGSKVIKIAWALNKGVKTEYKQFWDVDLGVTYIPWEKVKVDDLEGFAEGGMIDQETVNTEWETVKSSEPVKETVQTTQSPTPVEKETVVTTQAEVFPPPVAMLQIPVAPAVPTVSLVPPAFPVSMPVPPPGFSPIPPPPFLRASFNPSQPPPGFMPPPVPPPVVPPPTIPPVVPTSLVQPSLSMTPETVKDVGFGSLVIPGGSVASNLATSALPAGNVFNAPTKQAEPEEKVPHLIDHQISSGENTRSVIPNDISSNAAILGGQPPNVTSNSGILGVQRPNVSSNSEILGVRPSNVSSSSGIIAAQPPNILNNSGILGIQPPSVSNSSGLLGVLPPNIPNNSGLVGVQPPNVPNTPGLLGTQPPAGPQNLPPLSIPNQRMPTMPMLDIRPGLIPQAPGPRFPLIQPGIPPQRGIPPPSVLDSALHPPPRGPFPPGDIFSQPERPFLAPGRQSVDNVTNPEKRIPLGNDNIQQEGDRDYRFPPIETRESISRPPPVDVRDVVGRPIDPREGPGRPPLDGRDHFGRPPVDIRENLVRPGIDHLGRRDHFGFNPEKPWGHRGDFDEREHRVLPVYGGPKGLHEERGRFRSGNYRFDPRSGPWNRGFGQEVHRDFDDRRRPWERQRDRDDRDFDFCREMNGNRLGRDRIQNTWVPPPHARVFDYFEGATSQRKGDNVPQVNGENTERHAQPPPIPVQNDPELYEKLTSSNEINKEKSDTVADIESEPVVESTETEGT
UniProt Q96I15: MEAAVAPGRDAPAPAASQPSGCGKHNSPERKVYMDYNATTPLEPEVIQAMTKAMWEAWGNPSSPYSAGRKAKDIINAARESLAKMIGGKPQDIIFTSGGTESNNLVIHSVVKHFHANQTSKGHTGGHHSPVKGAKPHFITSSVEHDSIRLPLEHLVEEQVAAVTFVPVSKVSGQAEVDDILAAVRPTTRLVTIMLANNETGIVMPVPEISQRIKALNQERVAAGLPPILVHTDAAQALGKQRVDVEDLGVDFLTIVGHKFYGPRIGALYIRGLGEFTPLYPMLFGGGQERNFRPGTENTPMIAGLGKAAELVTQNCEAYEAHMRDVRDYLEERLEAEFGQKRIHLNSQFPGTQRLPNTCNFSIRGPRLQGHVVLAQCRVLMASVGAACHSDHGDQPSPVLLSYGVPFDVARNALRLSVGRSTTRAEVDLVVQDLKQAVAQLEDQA
UniProt Q9NVA2: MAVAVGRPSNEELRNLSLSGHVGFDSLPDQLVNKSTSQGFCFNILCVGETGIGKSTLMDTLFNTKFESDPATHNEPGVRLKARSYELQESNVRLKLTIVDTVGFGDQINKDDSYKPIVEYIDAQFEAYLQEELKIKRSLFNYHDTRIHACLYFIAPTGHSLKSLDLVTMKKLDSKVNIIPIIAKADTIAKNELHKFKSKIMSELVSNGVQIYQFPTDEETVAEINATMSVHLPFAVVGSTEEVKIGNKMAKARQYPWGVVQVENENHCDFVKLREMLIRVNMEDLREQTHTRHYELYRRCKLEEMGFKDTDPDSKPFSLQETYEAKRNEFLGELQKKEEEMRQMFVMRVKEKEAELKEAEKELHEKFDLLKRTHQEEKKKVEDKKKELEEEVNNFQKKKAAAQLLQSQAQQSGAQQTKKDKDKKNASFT
UniProt Q13228: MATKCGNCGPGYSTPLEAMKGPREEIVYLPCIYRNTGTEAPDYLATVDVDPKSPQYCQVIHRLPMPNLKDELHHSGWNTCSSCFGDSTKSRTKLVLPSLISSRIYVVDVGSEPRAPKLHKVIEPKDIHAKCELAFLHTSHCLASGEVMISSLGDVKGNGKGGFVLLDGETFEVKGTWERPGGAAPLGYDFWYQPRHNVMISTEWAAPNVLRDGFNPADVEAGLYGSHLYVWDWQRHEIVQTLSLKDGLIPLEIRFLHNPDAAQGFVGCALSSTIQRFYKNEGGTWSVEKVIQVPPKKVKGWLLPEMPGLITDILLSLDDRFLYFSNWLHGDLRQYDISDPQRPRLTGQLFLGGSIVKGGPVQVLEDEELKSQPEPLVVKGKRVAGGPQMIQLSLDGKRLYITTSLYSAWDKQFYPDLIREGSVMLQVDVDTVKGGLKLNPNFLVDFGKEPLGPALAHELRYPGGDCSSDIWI
UniProt O95487: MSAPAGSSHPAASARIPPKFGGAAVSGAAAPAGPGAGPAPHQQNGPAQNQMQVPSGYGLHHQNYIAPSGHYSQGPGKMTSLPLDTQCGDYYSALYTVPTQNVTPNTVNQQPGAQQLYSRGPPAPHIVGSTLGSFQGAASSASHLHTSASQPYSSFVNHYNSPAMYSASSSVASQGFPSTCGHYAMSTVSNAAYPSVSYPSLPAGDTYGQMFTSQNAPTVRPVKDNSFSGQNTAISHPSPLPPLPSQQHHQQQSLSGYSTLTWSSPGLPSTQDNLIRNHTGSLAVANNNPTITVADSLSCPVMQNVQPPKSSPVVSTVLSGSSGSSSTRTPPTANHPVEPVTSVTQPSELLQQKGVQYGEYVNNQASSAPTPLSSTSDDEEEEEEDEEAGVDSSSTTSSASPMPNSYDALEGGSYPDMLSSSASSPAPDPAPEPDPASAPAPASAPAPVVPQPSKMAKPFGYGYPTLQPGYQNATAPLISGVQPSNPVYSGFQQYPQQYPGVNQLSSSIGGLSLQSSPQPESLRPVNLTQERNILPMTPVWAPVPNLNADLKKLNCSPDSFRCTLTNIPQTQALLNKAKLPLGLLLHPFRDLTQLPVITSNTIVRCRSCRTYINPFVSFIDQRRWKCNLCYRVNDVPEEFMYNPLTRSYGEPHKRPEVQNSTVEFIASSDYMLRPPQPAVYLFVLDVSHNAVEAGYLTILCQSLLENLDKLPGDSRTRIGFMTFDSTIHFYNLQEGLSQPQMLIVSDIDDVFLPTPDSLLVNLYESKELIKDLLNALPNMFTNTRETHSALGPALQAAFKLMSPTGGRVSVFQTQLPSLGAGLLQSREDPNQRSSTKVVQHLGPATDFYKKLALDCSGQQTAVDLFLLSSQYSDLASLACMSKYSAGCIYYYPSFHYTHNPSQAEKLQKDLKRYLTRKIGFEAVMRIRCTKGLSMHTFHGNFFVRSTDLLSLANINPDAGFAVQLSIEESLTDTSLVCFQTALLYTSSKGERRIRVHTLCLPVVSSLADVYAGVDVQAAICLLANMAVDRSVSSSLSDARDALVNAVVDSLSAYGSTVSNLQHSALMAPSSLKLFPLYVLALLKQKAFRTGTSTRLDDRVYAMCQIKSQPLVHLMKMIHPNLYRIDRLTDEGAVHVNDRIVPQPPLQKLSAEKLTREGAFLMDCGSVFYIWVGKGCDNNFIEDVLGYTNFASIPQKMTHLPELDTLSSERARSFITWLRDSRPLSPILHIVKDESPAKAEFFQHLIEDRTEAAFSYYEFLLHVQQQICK
UniProt Q9HCN8: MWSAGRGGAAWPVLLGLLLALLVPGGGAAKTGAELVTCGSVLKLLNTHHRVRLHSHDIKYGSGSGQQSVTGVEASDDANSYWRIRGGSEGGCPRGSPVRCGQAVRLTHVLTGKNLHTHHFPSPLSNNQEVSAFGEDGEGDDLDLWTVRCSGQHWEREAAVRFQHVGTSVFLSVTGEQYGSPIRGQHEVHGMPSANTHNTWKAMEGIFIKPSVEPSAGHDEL
UniProt P61619, whole entry, looked up: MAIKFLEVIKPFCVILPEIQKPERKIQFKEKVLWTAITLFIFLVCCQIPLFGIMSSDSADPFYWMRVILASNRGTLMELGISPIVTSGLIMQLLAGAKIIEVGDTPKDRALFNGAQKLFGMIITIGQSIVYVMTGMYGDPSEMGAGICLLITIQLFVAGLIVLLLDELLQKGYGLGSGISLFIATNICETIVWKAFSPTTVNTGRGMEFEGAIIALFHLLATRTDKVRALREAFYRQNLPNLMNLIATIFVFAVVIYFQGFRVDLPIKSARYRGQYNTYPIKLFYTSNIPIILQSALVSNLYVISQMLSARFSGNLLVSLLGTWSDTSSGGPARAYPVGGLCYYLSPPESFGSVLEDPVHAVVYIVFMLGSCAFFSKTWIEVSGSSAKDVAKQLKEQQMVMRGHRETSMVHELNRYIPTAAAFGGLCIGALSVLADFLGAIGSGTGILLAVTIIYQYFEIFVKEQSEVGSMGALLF
UniProt Q8WU76: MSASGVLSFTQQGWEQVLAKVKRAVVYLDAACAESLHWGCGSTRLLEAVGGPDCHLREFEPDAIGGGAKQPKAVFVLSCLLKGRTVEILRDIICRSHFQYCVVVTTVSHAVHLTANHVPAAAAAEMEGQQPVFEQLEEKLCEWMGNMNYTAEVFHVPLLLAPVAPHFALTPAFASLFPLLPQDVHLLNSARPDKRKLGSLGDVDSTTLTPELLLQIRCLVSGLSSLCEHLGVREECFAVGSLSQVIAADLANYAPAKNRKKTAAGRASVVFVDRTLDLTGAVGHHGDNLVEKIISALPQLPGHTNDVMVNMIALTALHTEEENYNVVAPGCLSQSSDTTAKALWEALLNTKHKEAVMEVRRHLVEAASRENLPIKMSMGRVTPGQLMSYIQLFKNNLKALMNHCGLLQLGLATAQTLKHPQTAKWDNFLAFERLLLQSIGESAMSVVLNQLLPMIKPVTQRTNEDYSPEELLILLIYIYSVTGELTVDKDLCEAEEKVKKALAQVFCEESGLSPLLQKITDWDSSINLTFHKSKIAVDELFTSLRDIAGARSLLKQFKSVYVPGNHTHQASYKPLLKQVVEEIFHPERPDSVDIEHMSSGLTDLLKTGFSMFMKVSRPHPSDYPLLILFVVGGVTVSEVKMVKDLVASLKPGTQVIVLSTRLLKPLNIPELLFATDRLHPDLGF
UniProt Q8WTV0: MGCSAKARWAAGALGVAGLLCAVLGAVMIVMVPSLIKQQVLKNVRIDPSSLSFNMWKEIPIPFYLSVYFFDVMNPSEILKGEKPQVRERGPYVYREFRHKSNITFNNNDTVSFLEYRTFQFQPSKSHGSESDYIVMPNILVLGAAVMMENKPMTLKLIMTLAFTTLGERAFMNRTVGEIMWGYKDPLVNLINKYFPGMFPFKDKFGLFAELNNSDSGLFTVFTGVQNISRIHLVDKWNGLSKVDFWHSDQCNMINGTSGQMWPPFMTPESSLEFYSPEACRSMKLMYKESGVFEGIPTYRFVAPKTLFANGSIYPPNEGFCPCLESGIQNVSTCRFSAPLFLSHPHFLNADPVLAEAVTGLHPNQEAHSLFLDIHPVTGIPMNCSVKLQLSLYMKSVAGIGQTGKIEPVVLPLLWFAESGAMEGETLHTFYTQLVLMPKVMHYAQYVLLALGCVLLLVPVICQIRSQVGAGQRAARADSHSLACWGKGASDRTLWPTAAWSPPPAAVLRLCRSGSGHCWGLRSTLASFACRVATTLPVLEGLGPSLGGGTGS
UniProt O00422: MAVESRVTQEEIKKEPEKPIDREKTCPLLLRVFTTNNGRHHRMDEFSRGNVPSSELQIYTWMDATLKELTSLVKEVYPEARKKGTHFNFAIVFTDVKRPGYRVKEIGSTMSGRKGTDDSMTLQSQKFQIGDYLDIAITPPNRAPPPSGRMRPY
UniProt O75396: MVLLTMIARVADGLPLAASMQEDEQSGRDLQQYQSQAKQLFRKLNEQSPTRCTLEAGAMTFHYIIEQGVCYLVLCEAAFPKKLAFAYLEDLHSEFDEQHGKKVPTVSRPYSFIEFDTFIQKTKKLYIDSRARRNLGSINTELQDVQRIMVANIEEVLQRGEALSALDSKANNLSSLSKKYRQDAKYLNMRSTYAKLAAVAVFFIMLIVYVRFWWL
UniProt O14828: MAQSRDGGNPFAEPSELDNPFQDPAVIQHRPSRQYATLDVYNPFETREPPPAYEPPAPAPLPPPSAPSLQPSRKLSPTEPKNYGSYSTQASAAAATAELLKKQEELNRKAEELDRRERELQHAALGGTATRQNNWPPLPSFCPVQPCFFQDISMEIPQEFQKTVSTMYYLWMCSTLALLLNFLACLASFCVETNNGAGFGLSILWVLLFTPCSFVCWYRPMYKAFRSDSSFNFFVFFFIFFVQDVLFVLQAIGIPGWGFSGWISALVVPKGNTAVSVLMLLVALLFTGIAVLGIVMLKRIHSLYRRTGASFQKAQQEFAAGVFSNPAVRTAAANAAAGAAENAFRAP

Tests used:
Assay in all cases: log2 fold change, soluble protein after heating vs DMSO (PISA); higher = thermal stabilisation; K562 lysate, 10 uM; active = over 0.2 and 3.5 SD of the protein, either way, in both replicates (recomputed)
lapatinib = compound: CS(=O)(=O)CCNCc1ccc(-c2ccc3ncnc(Nc4ccc(OCc5cccc(F)c5)c(Cl)c4)c3c2)o1 [lapatinib]
Method in brief: (§1)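 Values give the log-two fold change in thermal stability against solvent controls, from duplicates. Crude K562 extract at 1 mg/mL protein, made by dounce homogenisation in PBS pH 7.4 with 1 mM MgCl2, was treated with 10 μM compound for 30 min. After 3 min heating across 48°C-58°C, aliquots were pooled, adjusted to 0.5% NP-40 at 4°C and centrifuged at 21,000xg for 90 min. The supernatant was measured by TMTpro 16plex LC-MS/MS with channel sums equalised.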

pictilisib = compound: CS(=O)(=O)N1CCN(Cc2cc3nc(-c4cccc5[nH]ncc45)nc(N4CCOCC4)c3s2)CC1 [pictilisib]
Method in brief: as §1

crizotinib = compound: C[C@@H](Oc1cc(-c2cnn(C3CCNCC3)c2)cnc1N)c1c(Cl)ccc(F)c1Cl [crizotinib]
Method in brief: as §1

[1] = compound: C[C@H](C1=CC=C(C=C1)C(=O)NC2=C3C=CNC3=NC=C2)N
Method in brief: as §1

duvelisib = compound: C[C@H](Nc1ncnc2nc[nH]c12)c1cc2cccc(Cl)c2c(=O)n1-c1ccccc1 [duvelisib]
Method in brief: as §1

gandotinib = compound: Cc1cc(Nc2cc(CN3CCOCC3)c3nc(C)c(Cc4ccc(Cl)cc4F)n3n2)n[nH]1 [gandotinib]
Method in brief: as §1

tozasertib = compound: Cc1cc(Nc2cc(N3CCN(C)CC3)nc(Sc3ccc(NC(=O)C4CC4)cc3)n2)n[nH]1 [tozasertib]
Method in brief: as §1

doramapimod = compound: Cc1ccc(-n2nc(C(C)(C)C)cc2NC(=O)Nc2ccc(OCCN3CCOCC3)c3ccccc23)cc1 [doramapimod]
Method in brief: as §1

bafetinib = compound: Cc1ccc(NC(=O)c2ccc(CN3CC[C@H](N(C)C)C3)c(C(F)(F)F)c2)cc1Nc1nccc(-c2cncnc2)n1 [bafetinib]
Method in brief: as §1

[2] = compound: Cc1cccc(CC(=O)N2CCc3c2ccc(-c2cn(C)c4ncnc(N)c24)c3F)n1
Method in brief: as §1

nilotinib = compound: Cc1cn(-c2cc(NC(=O)c3ccc(C)c(Nc4nccc(-c5cccnc5)n4)c3)cc(C(F)(F)F)c2)cn1 [nilotinib]
Method in brief: as §1

[3] = compound: Cc1nc(Nc2n[nH]c3c2CN(C(=O)N[C@H](CN(C)C)c2ccccc2)C3(C)C)c2sccc2n1
Method in brief: as §1

dasatinib = compound: Cc1nc(Nc2ncc(C(=O)Nc3c(C)cccc3Cl)s2)cc(N2CCN(CCO)CC2)n1 [dasatinib]
Method in brief: as §1

[4] = compound: Cc1ncc(-c2ccnc(Nc3ccc(S(C)(=O)=O)cc3)n2)n1C(C)C
Method in brief: as §1

[5] = compound: Cn1cc(-c2ccc3c(c2)CCN3C(=O)Cc2cccc(C(F)(F)F)c2)c2c(N)ncnc21
Method in brief: as §1

quisinostat = compound: Cn1cc(CNCC2CCN(c3ncc(C(=O)NO)cn3)CC2)c2ccccc21 [quisinostat]
Method in brief: as §1

tipifarnib = compound: Cn1cncc1[C@@](N)(c1ccc(Cl)cc1)c1ccc2c(c1)c(-c1cccc(Cl)c1)cc(=O)n2C [tipifarnib]
Method in brief: as §1

[6] = compound: NC(=O)Nc1cc(-c2cccc(F)c2)sc1C(=O)N[C@H]1CCCNC1
Method in brief: as §1

[7] = compound: NC(=O)c1cnc(N[C@@H]2CCCC[C@@H]2N)nc1Nc1cccc(-n2nccn2)c1
Method in brief: as §1

[8] = compound: NC1(c2ccc(-c3nc4ccn5c(=O)[nH]nc5c4cc3-c3ccccc3)cc2)CCC1
Method in brief: as §1

Measured: log2 fold change

SEMA4B (UniProt Q9NPR2)
inactive: lapatinib 0.038 | pictilisib -0.135 | crizotinib 0.069 | [1] -0.104 | duvelisib -0.006 | gandotinib 0.011 | tozasertib -0.006 | doramapimod -0.021 | bafetinib -0.174 | [2] 0.043 | nilotinib 0.04 | [3] -0.116 | dasatinib 0.035 | [4] 0.073 | [5] 0.163 | quisinostat -0.03 | tipifarnib 0.031 | [6] -0.001 | [7] -0.05 | [8] 0.003

SCAF8 (UniProt Q9UPN6)
inactive: lapatinib -0.018 | pictilisib -0.049 | crizotinib -0.02 | [1] -0.011 | duvelisib -0.037 | gandotinib -0.117 | tozasertib -0.015 | doramapimod 0.001 | bafetinib -0.031 | [2] 0.039 | nilotinib 0.003 | [3] -0.048 | dasatinib -0.07 | [4] 0.028 | [5] 0.018 | quisinostat 0 | tipifarnib -0.044 | [6] 0.039 | [7] 0.002 | [8] 0.005

SCLY (UniProt Q96I15)
inactive: lapatinib 0.016 | pictilisib -0.033 | crizotinib -0.008 | [1] 0.002 | duvelisib -0.001 | gandotinib 0.072 | tozasertib 0.008 | doramapimod 0 | bafetinib 0.028 | [2] 0.041 | nilotinib -0.031 | [3] -0.004 | dasatinib 0.161 | [4] 0.012 | [5] -0.019 | quisinostat 0.04 | tipifarnib 0.033 | [6] -0.023 | [7] -0.002 | [8] -0.022

SEPHS2 (UniProt Q99611)
inactive: lapatinib -0.006 | pictilisib -0.019 | crizotinib 0.104 | [1] -0.021 | duvelisib 0.017 | gandotinib 0.047 | tozasertib 0.015 | doramapimod -0.01 | bafetinib 0.039 | [2] 0.006 | nilotinib -0.012 | [3] 0.015 | dasatinib 0 | [4] -0.028 | [5] -0.018 | quisinostat -0.042 | tipifarnib -0.009 | [6] -0.013 | [7] 0.001 | [8] 0.026

SEPTIN11 isoform 2 (UniProt Q9NVA2)
inactive: lapatinib 0.017 | pictilisib 0.006 | crizotinib 0.044 | [1] 0.01 | duvelisib 0.03 | gandotinib 0 | tozasertib -0.021 | doramapimod -0.015 | bafetinib 0.037 | [2] -0.026 | nilotinib 0.007 | [3] 0.022 | dasatinib -0.004 | [4] -0.017 | [5] 0.007 | quisinostat 0.001 | tipifarnib 0.025 | [6] 0 | [7] -0.034 | [8] -0.001

SELENBP1 isoform 4 (UniProt Q13228)
inactive: lapatinib -0.019 | pictilisib -0.018 | crizotinib 0.034 | [1] 0.026 | duvelisib 0.029 | gandotinib 0.008 | tozasertib -0.037 | doramapimod -0.025 | bafetinib 0.031 | [2] -0.019 | nilotinib 0.019 | [3] -0.006 | dasatinib 0.021 | [4] -0.033 | [5] 0.029 | quisinostat 0 | tipifarnib 0.012 | [6] 0.01 | [7] -0.001 | [8] 0.007

5 consecutive entries out of the list so far, quoted:
SEMA4B (UniProt Q9NPR2)
inactive: lapatinib 0.038 | pictilisib -0.135 | crizotinib 0.069 | [1] -0.104 | duvelisib -0.006 | gandotinib 0.011 | tozasertib -0.006 | doramapimod -0.021 | bafetinib -0.174 | [2] 0.043 | nilotinib 0.04 | [3] -0.116 | dasatinib 0.035 | [4] 0.073 | [5] 0.163 | quisinostat -0.03 | tipifarnib 0.031 | [6] -0.001 | [7] -0.05 | [8] 0.003

SCAF8 (UniProt Q9UPN6)
inactive: lapatinib -0.018 | pictilisib -0.049 | crizotinib -0.02 | [1] -0.011 | duvelisib -0.037 | gandotinib -0.117 | tozasertib -0.015 | doramapimod 0.001 | bafetinib -0.031 | [2] 0.039 | nilotinib 0.003 | [3] -0.048 | dasatinib -0.07 | [4] 0.028 | [5] 0.018 | quisinostat 0 | tipifarnib -0.044 | [6] 0.039 | [7] 0.002 | [8] 0.005

SCLY (UniProt Q96I15)
inactive: lapatinib 0.016 | pictilisib -0.033 | crizotinib -0.008 | [1] 0.002 | duvelisib -0.001 | gandotinib 0.072 | tozasertib 0.008 | doramapimod 0 | bafetinib 0.028 | [2] 0.041 | nilotinib -0.031 | [3] -0.004 | dasatinib 0.161 | [4] 0.012 | [5] -0.019 | quisinostat 0.04 | tipifarnib 0.033 | [6] -0.023 | [7] -0.002 | [8] -0.022

SEPHS2 (UniProt Q99611)
inactive: lapatinib -0.006 | pictilisib -0.019 | crizotinib 0.104 | [1] -0.021 | duvelisib 0.017 | gandotinib 0.047 | tozasertib 0.015 | doramapimod -0.01 | bafetinib 0.039 | [2] 0.006 | nilotinib -0.012 | [3] 0.015 | dasatinib 0 | [4] -0.028 | [5] -0.018 | quisinostat -0.042 | tipifarnib -0.009 | [6] -0.013 | [7] 0.001 | [8] 0.026

SEPTIN11 isoform 2 (UniProt Q9NVA2)
inactive: lapatinib 0.017 | pictilisib 0.006 | crizotinib 0.044 | [1] 0.01 | duvelisib 0.03 | gandotinib 0 | tozasertib -0.021 | doramapimod -0.015 | bafetinib 0.037 | [2] -0.026 | nilotinib 0.007 | [3] 0.022 | dasatinib -0.004 | [4] -0.017 | [5] 0.007 | quisinostat 0.001 | tipifarnib 0.025 | [6] 0 | [7] -0.034 | [8] -0.001

(next part)

SEC24B isoform 3 (UniProt O95487)
inactive: lapatinib -0.018 | pictilisib -0.037 | crizotinib -0.027 | [1] 0.173 | duvelisib -0.019 | gandotinib -0.173 | tozasertib -0.038 | doramapimod -0.006 | bafetinib -0.032 | [2] -0.081 | nilotinib 0.013 | [3] -0.038 | dasatinib -0.068 | [4] -0.002 | [5] 0.007 | quisinostat -0.02 | tipifarnib -0.022 | [6] 0.037 | [7] 0.002 | [8] 0.015

SDF2L1 (UniProt Q9HCN8)
inactive: lapatinib -0.03 | pictilisib 0.015 | crizotinib 0.031 | [1] -0.147 | duvelisib -0.016 | gandotinib 0.091 | tozasertib -0.014 | doramapimod -0.023 | bafetinib -0.028 | [2] -0.011 | nilotinib 0.007 | [3] 0.008 | dasatinib -0.009 | [4] 0.01 | [5] -0.039 | quisinostat -0.017 | tipifarnib 0.003 | [6] -0.002 | [7] -0.024 | [8] -0.005

SEC61A1 (UniProt P61619)
inactive: lapatinib -0.005 | pictilisib -0.007 | crizotinib 0.034 | [1] -0.064 | duvelisib 0.011 | gandotinib 0.06 | tozasertib -0.043 | doramapimod -0.092 | bafetinib -0.035 | [2] 0.062 | nilotinib -0.004 | [3] 0.018 | dasatinib 0.054 | [4] 0.001 | [5] -0.026 | quisinostat 0.02 | tipifarnib 0.014 | [6] -0.02 | [7] -0.036 | [8] -0.031

SCFD2 (UniProt Q8WU76)
inactive: lapatinib -0.013 | pictilisib -0.004 | crizotinib -0.095 | [1] -0.011 | duvelisib 0.015 | gandotinib -0.026 | tozasertib 0.081 | doramapimod -0.007 | bafetinib 0.014 | [2] 0.022 | nilotinib 0.073 | [3] 0.07 | dasatinib -0.06 | [4] -0.009 | [5] 0.022 | quisinostat -0.055 | tipifarnib -0.063 | [6] 0.055 | [7] -0.039 | [8] -0.002

SCARB1 isoform 2 (UniProt Q8WTV0)
inactive: lapatinib -0.01 | pictilisib -0.001 | crizotinib 0.01 | [1] -0.055 | duvelisib 0.011 | gandotinib 0.065 | tozasertib 0.012 | doramapimod -0.009 | bafetinib -0.024 | [2] -0.011 | nilotinib 0.043 | [3] 0.003 | dasatinib 0.003 | [4] -0.02 | [5] -0.034 | quisinostat -0.057 | tipifarnib 0.004 | [6] 0.019 | [7] -0.015 | [8] -0.034

SAP18 isoform 2 (UniProt O00422)
inactive: lapatinib 0.013 | pictilisib -0.027 | crizotinib -0.037 | [1] -0.034 | duvelisib -0.02 | gandotinib -0.003 | tozasertib 0.003 | doramapimod 0.079 | bafetinib -0.002 | [2] 0.031 | nilotinib 0.007 | [3] 0.003 | dasatinib 0 | [4] -0.04 | [5] 0.013 | quisinostat -0.061 | tipifarnib -0.011 | [6] -0.029 | [7] 0.052 | [8] -0.02

SBF1 isoform 4 (UniProt O95248)
inactive: lapatinib -0.029 | pictilisib -0.075 | crizotinib 0.088 | [1] 0.07 | duvelisib -0.039 | gandotinib -0.066 | tozasertib 0 | doramapimod -0.004 | bafetinib -0.061 | [2] 0.006 | nilotinib -0.018 | [3] -0.041 | dasatinib 0.092 | [4] -0.046 | [5] 0.047 | quisinostat -0.103 | tipifarnib 0.162 | [6] 0.12 | [7] 0.039 | [8] 0.091

SEC22B (UniProt O75396)
inactive: lapatinib -0.003 | pictilisib -0.046 | crizotinib 0.016 | [1] -0.038 | duvelisib -0.038 | gandotinib 0.022 | tozasertib -0.043 | doramapimod -0.013 | bafetinib -0.048 | [2] -0.003 | nilotinib 0.022 | [3] -0.066 | dasatinib 0.009 | [4] 0.07 | [5] -0.008 | quisinostat 0.048 | tipifarnib 0.042 | [6] -0.004 | [7] 0.008 | [8] -0.03

SALL2 (UniProt Q9Y467)
inactive: lapatinib 0.149 | pictilisib -0.051 | crizotinib 0.026 | [1] -0.016 | duvelisib -0.042 | gandotinib -0.095 | tozasertib -0.167 | doramapimod -0.043 | bafetinib -0.011 | [2] 0.175 | nilotinib -0.08 | [3] -0.026 | dasatinib 0.046 | [4] 0.031 | [5] -0.073 | quisinostat 0.039 | tipifarnib -0.106 | [6] 0.02 | [7] -0.153 | [8] -0.039

SCAMP3 isoform 2 (UniProt O14828)
inactive: lapatinib 0.043 | pictilisib 0.115 | crizotinib 0.096 | [1] -0.209 | duvelisib 0.004 | gandotinib 0.089 | tozasertib -0.123 | doramapimod 0.035 | bafetinib -0.139 | [2] 0.183 | nilotinib 0.067 | [3] 0.11 | dasatinib -0.062 | [4] 0.131 | [5] 0.005 | quisinostat -0.138 | tipifarnib -0.036 | [6] 0.04 | [7] 0.003 | [8] 0.107
